At least one read-out could not be matched to a standard name with certainty.
Experiment: Solubilizing effect of a 50% w/w solution of HPCD on steroids and CDS
Conditions: aqueous HPCD
Experimental: An excess of E2-CDS was sonicated with an aqueous solution of the appropriate solubilizing agent for 30 minutes. The suspension was then centrifuged, filtered through 0.45 µm polyvinylidene difluoride (Millex-HV4, Millipore®) membranes and analyzed by HPLC. […] An estimation of the bulk equilibrium constant was obtained by correlating the millimolarity of E2-CDS solubilized and the millimolarity of the cyclodextrin added. This latter value was calculated using the average molecular weight of the isomeric mixture determined by mass spectroscopy. The solubilizing effect of a 50% w/w solution of HPCD was also examined for a series of steroids and dihydropyridines (CDS). These studies were carried out in a similar manner to those previously described.
For the CDS, the wavelength monitored was 360 nm while for estrogen 220 nm was used.
Separation was achieved on an Analytical Sciences, Inc. (ASI) 10 µm particle size, C18 reversed phase 30 cm x 3.9 mm i.d. analytical column. The flow rate was 1 mL/min, the compounds were detected at 360 nm and in all determinations the temperature was ambient. […] For the GABA-CDS1, a mobile phase consisting of 50:1:1:48 of the same components was required. […] Other compounds were assayed spectrophotometrically.

Substance: 17β-{[(1-methyl-1,4-dihydropyridin-3-yl)carbonyl]oxy}-19-norpregn-4-en-20-yn-3-one [norethindrone-CDS]
- solubilization with HPCD (in words): not readily solubilized
